From patent publication US20110104157A1, “LIVER CANCER DRUG” (Chugai Seiyaku Kabushiki Kaisha, priority 2008, published 2011)
No constants are given. Whether binding was seen depends on the method and setting. Some results given as binding are weak or reduced against the parent protein; the word gives no strength.

Sequences of proteins named here, by UniProt entry; tags and fusion partners are left off. A change or cut given only in a name is not applied to a line headed by its entry.
UniProt P51654: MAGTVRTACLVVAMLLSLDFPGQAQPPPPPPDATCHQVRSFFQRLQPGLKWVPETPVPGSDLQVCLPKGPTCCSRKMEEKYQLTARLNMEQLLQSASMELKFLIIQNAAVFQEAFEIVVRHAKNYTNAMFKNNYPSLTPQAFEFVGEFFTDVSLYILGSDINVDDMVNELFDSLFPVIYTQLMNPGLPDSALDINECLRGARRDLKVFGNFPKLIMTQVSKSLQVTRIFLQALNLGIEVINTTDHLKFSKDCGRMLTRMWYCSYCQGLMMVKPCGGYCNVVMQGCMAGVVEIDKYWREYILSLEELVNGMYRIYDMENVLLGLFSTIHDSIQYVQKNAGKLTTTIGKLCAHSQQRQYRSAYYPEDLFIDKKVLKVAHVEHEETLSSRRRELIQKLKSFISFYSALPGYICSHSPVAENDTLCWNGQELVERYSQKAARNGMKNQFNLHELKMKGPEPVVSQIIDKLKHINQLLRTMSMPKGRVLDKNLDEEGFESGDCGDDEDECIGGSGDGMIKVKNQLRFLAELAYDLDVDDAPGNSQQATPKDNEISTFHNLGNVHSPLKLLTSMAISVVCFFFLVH

Molecular target: soluble GPC3 core polypeptide (Homo sapiens (Human)) (UniProt P51654)
Experiment: competitive ELISA by the method of Reference Example 3, competitor biotinylated H0L0

- binding: binds
B1: pH7pL16 antibody (antibody, V domains shown)
VH: QVQLVQSGAEVKKPGASVTVSCKASGYTFTDYEMHWIRQPPGEGLEWIGAIDPKTGDTAYSESFQDRVTLTADKSTSTAYMELSSLTSEDTAVYYCTRFYSYTYWGQGTLVTVSS
VL: DIVMTQSPLSLPVTPGEPASISCQASESLVHSNRNTYLHWYLQKPGQSPQLLIYKVSNRFSGVPDRFSGSGSGTDFTLKISRVEAEDVGVYYCSQNTHVPPTFGQGTKVEIE
